Source: patent publication US20200224168A1, “COMPOSITIONS AND METHODS FOR ENHANCING MATURATION STATES OF HEALTHY AND DISEASED CARDIOMYOCYTES” (University of Washington, priority 2017, published 2020)
At least one structure is not confirmed: it was looked up by name or label, or the drawing left a doubt.

Columns and labels:
Assay type in all cases: cell-based, human
[1] = test system: cells exposed to Control conditions or Normal hPSC-CMs exposed to the ComboMat platform; experiment: nanoMEA beat rate variability, immature or healthy cells; settings: seven days
[2] = test system: mature DMD mutant hPSC-CMs; experiment: nanoMEA beat rate variability (Mean ΔBI), mature diseased cells; settings: mature (ComboMat) DMD mutant hPSC-CMs; seven days exposure; various concentrations
DMD mutant hPSC-CMs = experiment: Fura-2 Ca2+ imaging of diastolic Ca2+ content

SMILES: CCOC(=O)C1=C(C)NC(C)=C(C(=O)OC)C1c1cccc([N+](=O)[O-])c1 (stereo not shown) [NITRENDIPINE]
- impact on beat rate variability [1]: Neither nitrendipine nor sildenafil had a significant impact
- Mean ΔBI (beat rate variability) compared to DMSO carrier control [2]: significantly reduced
- diastolic Ca2+ content (DMD mutant hPSC-CMs; cells exposed to the Control condition): no impact
- diastolic Ca2+ content compared to DMSO control (DMD mutant hPSC-CMs; mature DMD mutant hPSC-CMs, 100 nM): reduced
